PubChem BioAssay AID686943 – Drosophila RNAi Screening Center | 2013

- Assay: 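Knockdowns that increase or decrease active ERK after insulin receptor stimulation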 (primary screen)
- System: Drosophila S2R+ haemocyte-like cells expressing YFP-tagged ERK (Rolled)
- Reagent: long dsRNA against Drosophila genes
- Challenge: insulin stimulation versus unstimulated cells; dose and duration not given
- Detection: 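Per-plate z-scores of phospho-ERK immunostaining normalised to YFP-tagged ERK, measured with and without insulin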
- Direction: replicate 1, z-score of dpERK with insulin and replicate 2, z-score of dpERK with insulin: higher = more active ERK per ERK-YFP after insulin
In all, the deposit lists about 23,000 reagents; below is an unselected part of those that have a named target and a result. 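Extra replicates exist only for a retested subset of genes; insulin dose and duration not given; both raised and lowered dpERK matter.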 Names joined by + are all predicted targets of the reagent. Not all columns of the deposit are shown. Not stated in the record: the amount of reagent, the time to read-out.

| Target gene | DRSC id | replicate 1, z-score of dpERK with insulin | replicate 2, z-score of dpERK with insulin |
| --- | --- | --- | --- |
| akirin | DRSC11000 | -1.77 | -4.33 |
| Cog8 | DRSC02961 | 1.1 | 0.19 |
| ect | DRSC10675 | 1.8 | 0.72 |
| ect | DRSC11343 | 1.23 | 2.06 |
| ect | DRSC22357 | 0.01 | 0.35 |
| hec | DRSC19895 | 0.21 | 0.42 |
| swa | DRSC18842 | 0.45 | 0.49 |
| ND-B14.5A | DRSC18500 | 0.05 | 0.23 |
| Mcr | DRSC03366 | -0.15 | -0.18 |
| Vajk3 | DRSC01883 | -0.23 | 0.07 |
| Teh3 | DRSC08537 | 1.2 | 0.43 |
| Rel | DRSC16819 | 0.84 | 1.61 |
| sls | DRSC08528 | 0.94 | 0.05 |
| sls | DRSC08540 | -1.61 | -0.69 |
| sls | DRSC08670 | -0.18 | -0.35 |
| fng | DRSC11455 | -0.03 | -0.14 |
| fng | DRSC11887 | 0.08 | 0.2 |
| fng | DRSC21935 | -0.47 | -0.39 |
| CG10413 | DRSC02052 | -0.84 | -0.54 |
| Dok | DRSC18204 | -1.7 | -3.02 |
| Bet5 | DRSC14600 | -0.03 | 1.08 |
| CG32069 + Blos2 | DRSC10621 | 0.32 | -0.17 |
| simj | DRSC10942 | -1.05 | -0.99 |
| CG30340 | DRSC05167 | 0.26 | 0.71 |
| CG8478 | DRSC16427 | -0.44 | 1.22 |
| Diedel2 | DRSC13952 | -0.36 | -0.57 |
| CG15641 | DRSC19677 | 0 | 0.31 |
| Cyp4ac2 | DRSC03303 | 0.62 | 0.12 |
| CG15056 | DRSC19630 | 0.05 | 0.15 |
| gkt + CR31953 | DRSC00709 | 0.22 | -0.31 |
| CG14258 | DRSC14753 | -0.7 | -0.04 |
| CG14100 | DRSC10101 | 0.55 | 1.07 |
| CG18507 | DRSC01334 | -0.07 | -0.1 |
| CG18507 | DRSC01914 | 0.42 | 0.27 |
| Aladin | DRSC18121 | 0.6 | 0.65 |
| Mct1 | DRSC18681 | -0.29 | 0.56 |
| l(1)sc | DRSC18789 | 0.79 | -0.15 |
| CG8750 | DRSC11037 | -1.12 | 0.24 |
| lncRNA:CR32385 | DRSC22966 | -0.24 | 0.43 |
| Tsp96F | DRSC14147 | 0.95 | 0.12 |
| Ir76a | DRSC10987 | 0.05 | -0.08 |
| Rab30 | DRSC03137 | 0.82 | 0.02 |
| EMC3 | DRSC02989 | -0.2 | -0.34 |
| CG11034 | DRSC02121 | 0.67 | -0.33 |
| CG11034 | DRSC02122 | 0.39 | 0.48 |
| Ak6 | DRSC07274 | 0.3 | 0.36 |
| CG9550 | DRSC03262 | -0.22 | 0.55 |
| CG31198 | DRSC15891 | -0.12 | -0.39 |
| CG31797 | DRSC02476 | 0 | 0.37 |
| CG31797 | DRSC02477 | 0.88 | 0.5 |
| ND-B12 | DRSC04060 | -0.17 | 0.06 |
| BBS1 | DRSC10196 | -1 | -0.65 |
| CG9967 | DRSC00742 | -0.11 | -0.09 |
| Ser12 | DRSC00786 | 0.48 | -0.15 |
| CG17239 | DRSC00492 | -0.85 | -0.5 |
| CG34135 + CG11768 | DRSC12702 | -0.09 | 0.33 |
| galene | DRSC08640 | 0.51 | 0.37 |
| galene | DRSC08641 | 0.62 | 0.36 |

A few values from the entries so far:
Value of CG30340 [DRSC05167] in “replicate 2, z-score of dpERK with insulin”: 0.71
For “replicate 1, z-score of dpERK with insulin”, gkt + CR31953 [DRSC00709] has 0.22
For “replicate 2, z-score of dpERK with insulin”, BBS1 [DRSC10196] reads -0.65
For “replicate 2, z-score of dpERK with insulin”, Dok [DRSC18204] reads -3.02
Diedel2 [DRSC13952], replicate 2, z-score of dpERK with insulin → -0.57
For “replicate 1, z-score of dpERK with insulin”, EMC3 [DRSC02989] reads -0.2
